Data reported in article PMC10117376.
These are yes or no findings as the source states them, for the method shown. Binding seen in cells or lysates may run through a third protein. Here binding means that the protein was enriched with, or labelled near, the bait; the list need not be complete.

Protein sequences, listed by entry. Tags and fused reporters are not part of them.
UniProt Q16650: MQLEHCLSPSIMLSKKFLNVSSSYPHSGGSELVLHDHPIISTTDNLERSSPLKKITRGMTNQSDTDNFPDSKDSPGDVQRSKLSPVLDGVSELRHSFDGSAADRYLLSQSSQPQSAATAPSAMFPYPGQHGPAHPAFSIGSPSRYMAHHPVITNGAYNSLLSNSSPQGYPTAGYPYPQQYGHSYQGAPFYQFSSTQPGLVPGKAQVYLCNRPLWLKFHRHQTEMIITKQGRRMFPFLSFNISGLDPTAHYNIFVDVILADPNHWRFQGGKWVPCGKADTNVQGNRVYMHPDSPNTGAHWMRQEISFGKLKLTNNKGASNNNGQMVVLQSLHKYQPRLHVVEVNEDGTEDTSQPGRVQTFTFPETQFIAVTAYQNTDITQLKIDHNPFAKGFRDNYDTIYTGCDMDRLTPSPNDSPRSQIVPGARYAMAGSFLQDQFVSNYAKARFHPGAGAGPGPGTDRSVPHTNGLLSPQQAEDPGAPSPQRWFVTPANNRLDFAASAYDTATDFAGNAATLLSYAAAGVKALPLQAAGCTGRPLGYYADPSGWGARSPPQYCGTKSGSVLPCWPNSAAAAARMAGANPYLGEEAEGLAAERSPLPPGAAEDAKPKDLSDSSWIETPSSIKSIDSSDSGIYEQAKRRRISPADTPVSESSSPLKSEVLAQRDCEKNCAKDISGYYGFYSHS
UniProt Q9UNE7: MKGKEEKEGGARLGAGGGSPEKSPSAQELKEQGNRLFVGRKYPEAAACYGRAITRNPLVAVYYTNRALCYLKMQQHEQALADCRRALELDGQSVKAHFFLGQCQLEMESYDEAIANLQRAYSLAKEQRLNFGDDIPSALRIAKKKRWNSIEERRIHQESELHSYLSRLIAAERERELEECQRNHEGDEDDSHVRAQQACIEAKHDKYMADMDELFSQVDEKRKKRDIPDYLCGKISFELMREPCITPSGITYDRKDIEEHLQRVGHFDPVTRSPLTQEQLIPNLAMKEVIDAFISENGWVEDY
UniProt Q12955: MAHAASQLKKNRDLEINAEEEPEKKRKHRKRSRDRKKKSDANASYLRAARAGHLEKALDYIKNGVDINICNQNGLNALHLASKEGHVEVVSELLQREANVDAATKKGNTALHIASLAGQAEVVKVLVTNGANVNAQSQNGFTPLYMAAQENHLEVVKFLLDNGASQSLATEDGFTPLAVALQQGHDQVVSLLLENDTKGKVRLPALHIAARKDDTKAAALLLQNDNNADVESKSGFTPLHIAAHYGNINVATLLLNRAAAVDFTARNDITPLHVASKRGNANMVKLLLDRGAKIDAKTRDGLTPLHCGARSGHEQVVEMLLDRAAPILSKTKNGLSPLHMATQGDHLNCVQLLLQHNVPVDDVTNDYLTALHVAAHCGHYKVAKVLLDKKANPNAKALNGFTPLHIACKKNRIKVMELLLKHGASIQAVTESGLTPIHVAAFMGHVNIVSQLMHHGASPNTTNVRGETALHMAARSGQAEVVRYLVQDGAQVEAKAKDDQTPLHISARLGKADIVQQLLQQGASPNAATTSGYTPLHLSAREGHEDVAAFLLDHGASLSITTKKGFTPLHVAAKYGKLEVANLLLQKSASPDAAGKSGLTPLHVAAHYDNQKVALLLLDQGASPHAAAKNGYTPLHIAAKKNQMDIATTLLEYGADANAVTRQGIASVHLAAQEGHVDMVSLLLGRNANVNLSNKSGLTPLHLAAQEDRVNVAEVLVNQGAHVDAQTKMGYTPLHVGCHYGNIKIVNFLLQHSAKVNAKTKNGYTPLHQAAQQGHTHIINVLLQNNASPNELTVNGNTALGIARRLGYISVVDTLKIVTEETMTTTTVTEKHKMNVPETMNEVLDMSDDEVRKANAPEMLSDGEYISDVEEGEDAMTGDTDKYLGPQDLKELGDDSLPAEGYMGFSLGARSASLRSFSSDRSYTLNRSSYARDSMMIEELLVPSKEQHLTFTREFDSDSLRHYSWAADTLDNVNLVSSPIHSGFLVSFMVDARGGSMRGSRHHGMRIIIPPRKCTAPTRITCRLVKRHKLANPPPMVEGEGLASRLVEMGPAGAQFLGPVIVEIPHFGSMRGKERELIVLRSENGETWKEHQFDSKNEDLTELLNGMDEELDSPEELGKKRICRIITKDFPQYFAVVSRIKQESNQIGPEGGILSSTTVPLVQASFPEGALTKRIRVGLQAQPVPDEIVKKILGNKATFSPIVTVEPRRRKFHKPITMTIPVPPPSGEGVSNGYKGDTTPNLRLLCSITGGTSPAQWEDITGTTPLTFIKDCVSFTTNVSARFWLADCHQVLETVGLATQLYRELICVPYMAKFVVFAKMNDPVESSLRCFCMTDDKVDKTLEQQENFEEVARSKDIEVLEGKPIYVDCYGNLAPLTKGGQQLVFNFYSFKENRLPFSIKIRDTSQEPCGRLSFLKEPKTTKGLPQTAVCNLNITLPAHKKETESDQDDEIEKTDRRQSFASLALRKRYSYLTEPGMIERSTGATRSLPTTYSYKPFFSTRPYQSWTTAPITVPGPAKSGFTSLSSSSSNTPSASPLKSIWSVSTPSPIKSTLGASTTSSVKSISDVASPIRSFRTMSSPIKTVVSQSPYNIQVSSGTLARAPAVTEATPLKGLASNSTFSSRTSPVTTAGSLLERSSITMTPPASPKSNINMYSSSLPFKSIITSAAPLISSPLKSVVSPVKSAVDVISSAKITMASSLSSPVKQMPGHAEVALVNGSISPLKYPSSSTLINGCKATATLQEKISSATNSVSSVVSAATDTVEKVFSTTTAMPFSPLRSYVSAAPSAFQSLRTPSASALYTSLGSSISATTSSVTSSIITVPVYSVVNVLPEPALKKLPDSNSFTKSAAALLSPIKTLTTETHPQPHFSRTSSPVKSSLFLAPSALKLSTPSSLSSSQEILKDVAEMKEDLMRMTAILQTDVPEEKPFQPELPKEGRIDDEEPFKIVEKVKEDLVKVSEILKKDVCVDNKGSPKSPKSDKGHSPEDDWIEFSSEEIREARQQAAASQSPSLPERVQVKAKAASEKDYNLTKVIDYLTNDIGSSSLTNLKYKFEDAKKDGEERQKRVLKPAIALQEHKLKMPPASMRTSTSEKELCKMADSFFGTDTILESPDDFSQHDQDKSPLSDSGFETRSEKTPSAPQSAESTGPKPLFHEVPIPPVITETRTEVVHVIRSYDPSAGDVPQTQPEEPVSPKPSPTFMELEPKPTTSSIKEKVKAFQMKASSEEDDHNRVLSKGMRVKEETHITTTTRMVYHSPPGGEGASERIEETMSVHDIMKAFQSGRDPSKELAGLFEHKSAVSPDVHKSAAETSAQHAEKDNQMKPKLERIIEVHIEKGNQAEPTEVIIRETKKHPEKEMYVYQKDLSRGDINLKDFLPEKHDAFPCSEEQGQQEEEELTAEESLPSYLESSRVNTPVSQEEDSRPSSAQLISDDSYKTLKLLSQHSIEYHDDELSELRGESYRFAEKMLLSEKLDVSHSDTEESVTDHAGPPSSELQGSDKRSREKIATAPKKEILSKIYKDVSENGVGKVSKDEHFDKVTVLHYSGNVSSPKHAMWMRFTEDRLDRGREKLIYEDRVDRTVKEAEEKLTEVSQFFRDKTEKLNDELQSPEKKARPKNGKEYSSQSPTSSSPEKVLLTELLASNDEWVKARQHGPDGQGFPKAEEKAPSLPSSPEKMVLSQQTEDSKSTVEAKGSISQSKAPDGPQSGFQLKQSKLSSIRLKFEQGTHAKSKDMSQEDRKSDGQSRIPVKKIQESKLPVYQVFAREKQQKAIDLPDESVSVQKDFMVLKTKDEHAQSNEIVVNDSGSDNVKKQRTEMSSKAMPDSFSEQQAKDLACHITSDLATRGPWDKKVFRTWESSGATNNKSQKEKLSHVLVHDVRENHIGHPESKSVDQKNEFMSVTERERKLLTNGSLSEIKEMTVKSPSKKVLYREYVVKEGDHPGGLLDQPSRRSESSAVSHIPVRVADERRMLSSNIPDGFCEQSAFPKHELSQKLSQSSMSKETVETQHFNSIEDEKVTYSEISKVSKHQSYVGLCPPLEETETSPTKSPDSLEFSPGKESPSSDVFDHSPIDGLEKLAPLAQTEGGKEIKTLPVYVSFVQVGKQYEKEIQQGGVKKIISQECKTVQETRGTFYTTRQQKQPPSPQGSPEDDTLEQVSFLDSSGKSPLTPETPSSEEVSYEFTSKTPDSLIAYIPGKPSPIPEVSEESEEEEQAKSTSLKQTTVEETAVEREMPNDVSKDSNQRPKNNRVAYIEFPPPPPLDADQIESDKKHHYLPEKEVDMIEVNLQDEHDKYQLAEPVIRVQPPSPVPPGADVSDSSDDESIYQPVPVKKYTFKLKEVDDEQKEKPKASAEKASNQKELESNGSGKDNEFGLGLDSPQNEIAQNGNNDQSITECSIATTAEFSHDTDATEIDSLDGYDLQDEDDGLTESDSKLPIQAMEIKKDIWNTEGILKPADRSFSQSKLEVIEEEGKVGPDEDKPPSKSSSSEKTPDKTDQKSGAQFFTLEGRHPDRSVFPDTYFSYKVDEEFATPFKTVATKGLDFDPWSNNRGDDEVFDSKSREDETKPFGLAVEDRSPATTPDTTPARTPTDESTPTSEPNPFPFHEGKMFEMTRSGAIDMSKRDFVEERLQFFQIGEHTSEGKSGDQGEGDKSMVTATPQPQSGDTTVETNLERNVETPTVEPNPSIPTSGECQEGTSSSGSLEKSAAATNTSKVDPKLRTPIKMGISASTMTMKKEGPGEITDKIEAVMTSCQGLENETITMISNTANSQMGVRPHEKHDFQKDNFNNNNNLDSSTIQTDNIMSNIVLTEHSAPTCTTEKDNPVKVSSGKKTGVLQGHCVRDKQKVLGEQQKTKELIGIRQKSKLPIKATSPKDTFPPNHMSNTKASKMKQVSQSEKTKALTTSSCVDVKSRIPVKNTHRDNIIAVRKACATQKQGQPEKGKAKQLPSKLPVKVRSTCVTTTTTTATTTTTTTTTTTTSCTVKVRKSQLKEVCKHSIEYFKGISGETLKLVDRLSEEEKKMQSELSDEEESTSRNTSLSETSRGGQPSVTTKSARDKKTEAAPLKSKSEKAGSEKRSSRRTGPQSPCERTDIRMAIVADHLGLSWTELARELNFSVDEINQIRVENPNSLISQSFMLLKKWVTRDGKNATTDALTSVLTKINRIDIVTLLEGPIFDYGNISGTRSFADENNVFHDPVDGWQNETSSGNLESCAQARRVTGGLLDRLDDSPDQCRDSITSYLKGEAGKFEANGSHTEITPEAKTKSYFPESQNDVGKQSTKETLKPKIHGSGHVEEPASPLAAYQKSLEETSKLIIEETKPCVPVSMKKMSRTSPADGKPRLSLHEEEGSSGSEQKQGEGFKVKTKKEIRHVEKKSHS
UniProt Q09161: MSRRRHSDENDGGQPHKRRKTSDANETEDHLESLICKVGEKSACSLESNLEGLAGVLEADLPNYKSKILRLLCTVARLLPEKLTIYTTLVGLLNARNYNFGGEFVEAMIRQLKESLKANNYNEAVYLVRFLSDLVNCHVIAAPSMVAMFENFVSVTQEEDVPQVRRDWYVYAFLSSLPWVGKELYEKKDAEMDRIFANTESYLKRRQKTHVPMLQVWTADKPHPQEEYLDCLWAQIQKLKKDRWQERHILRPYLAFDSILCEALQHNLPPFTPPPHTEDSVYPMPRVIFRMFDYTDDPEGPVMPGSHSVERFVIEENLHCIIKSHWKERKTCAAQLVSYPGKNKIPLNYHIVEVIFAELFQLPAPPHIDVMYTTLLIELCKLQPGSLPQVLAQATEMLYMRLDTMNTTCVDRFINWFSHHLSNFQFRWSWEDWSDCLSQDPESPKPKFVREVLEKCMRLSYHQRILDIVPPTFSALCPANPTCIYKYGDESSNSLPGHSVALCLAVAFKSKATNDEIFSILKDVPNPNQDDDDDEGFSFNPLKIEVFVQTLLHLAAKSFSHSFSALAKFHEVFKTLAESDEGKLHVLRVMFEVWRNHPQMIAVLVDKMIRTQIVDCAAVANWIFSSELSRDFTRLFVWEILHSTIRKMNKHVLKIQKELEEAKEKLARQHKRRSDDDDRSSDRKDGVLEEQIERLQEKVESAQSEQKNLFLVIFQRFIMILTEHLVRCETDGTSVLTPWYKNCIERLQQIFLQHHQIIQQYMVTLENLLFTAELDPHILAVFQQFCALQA

B1: LIN7C (protein, UniProt Q9NUP9 1-197)
chain: MAALGEPVRLERDICRAIELLEKLQRSGEVPPQKLQALQRVLQSEFCNAVREVYEHVYETVDISSSPEVRANATAKATVAAFAASEGHSHPRVVELPKTEEGLGFNIMGGKEQNSPIYISRIIPGGIADRHGGLKRGDQLLSVNGVSVEGEHHEKAVELLKAAQGKVKLVVRYTPKVLEEMESRFEKMRSAKRRQQT
B2: MED23 (protein, UniProt Q9ULK4 1-1368)
chain: METQLQSIFEEVVKTEVIEEAFPGMFMDTPEDEKTKLISCLGAFRQFWGGLSQESHEQCIQWIVKFIHGQHSPKRISFLYDCLAMAVETGLLPPRLVCESLINSDTLEWERTQLWALTFKLVRKIIGGVDYKGVRDLLKVILEKILTIPNTVSSAVVQQLLAAREVIAYILERNACLLPAYFAVTEIRKLYPEGKLPHWLLGNLVSDFVDTFRPTARINSICGRCSLLPVVNNSGAICNSWKLDPATLRFPLKGLLPYDKDLFEPQTALLRYVLEQPYSRDMVCNMLGLNKQHKQRCPVLEDQLVDLVVYAMERSETEEKFDDGGTSQLLWQHLSSQLIFFVLFQFASFPHMVLSLHQKLAGRGLIKGRDHLMWVLLQFISGSIQKNALADFLPVMKLFDLLYPEKEYIPVPDINKPQSTHAFAMTCIWIHLNRKAQNDNSKLQIPIPHSLRLHHEFLQQSLRNKSLQMNDYKIALLCNAYSTNSECFTLPMGALVETIYGNGIMRIPLPGTNCMASGSITPLPMNLLDSLTVHAKMSLIHSIATRVIKLAHAKSSVALAPALVETYSRLLVYMEIESLGIKGFISQLLPTVFKSHAWGILHTLLEMFSYRMHHIQPHYRVQLLSHLHTLAAVAQTNQNQLHLCVESTALRLITALGSSEVQPQFTRFLSDPKTVLSAESEELNRALILTLARATHVTDFFTGSDSIQGTWCKDILQTIMSFTPHNWASHTLSCFPGPLQAFFKQNNVPQESRFNLKKNVEEEYRKWKSMSNENDIITHFSMQGSPPLFLCLLWKMLLETDHINQIGYRVLERIGARALVAHVRTFADFLVYEFSTSAGGQQLNKCIEILNDMVWKYNIVTLDRLILCLAMRSHEGNEAQVCYFIIQLLLLKPNDFRNRVSDFVKENSPEHWLQNDWHTKHMNYHKKYPEKLYFEGLAEQVDPPVQIQSPYLPIYFGNVCLRFLPVFDIVIHRFLELLPVSKSLETLLDHLGGLYKFHDRPVTYLYNTLHYYEMHLRDRAFLKRKLVHAIIGSLKDNRPQGWCLSDTYLKCAMNAREENPWVPDDTYYCRLIGRLVDTMAGKSPGPFPNCDWRFNEFPNPAAHALHVTCVELMALAVSGKEVGNALLNVVLKSQPLVPRENITAWMNAIGLIITALPEPYWIVLHDRIVSVISSPSLTSETEWVGYPFRLFDFTACHQSYSEMSCSYTLALAHAVWHHSSIGQLSLIPKFLTEVLLPIVKTEFQLLYVYHLVGPFLQRFQQERTRCMIEIGVAFYDMLLNVDQCSTHLNYMDPICDFLYHMKYMFTGDSVKEQVEKIICNLKPALKLRLRFITHISKMEPAAVPPQAMNSGSPAPQSNQVPVSLPVTQ
B3: PLOD1 (protein, UniProt Q02809 19-727)
chain: KGDAKPEDNLLVLTVATKETEGFRRFKRSAQFFNYKIQALGLGEDWNVEKGTSAGGGQKVRLLKKALEKHADKEDLVILFADSYDVLFASGPRELLKKFRQARSQVVFSAEELIYPDRRLETKYPVVSDGKRFLGSGGFIGYAPNLSKLVAEWEGQDSDSDQLFYTKIFLDPEKREQINITLDHRCRIFQNLDGALDEVVLKFEMGHVRARNLAYDTLPVLIHGNGPTKLQLNYLGNYIPRFWTFETGCTVCDEGLRSLKGIGDEALPTVLVGVFIEQPTPFVSLFFQRLLRLHYPQKHMRLFIHNHEQHHKAQVEEFLAQHGSEYQSVKLVGPEVRMANADARNMGADLCRQDRSCTYYFSVDADVALTEPNSLRLLIQQNKNVIAPLMTRHGRLWSNFWGALSADGYYARSEDYVDIVQGRRVGVWNVPYISNIYLIKGSALRGELQSSDLFHHSKLDPDMAFCANIRQQDVFMFLTNRHTLGHLLSLDSYRTTHLHNDLWEVFSNPEDWKEKYIHQNYTKALAGKLVETPCPDVYWFPIFTEVACDELVEEMEHFGQWSLGNNKDNRIQGGYENVPTIDIHMNQIGFEREWHKFLLEYIAPMTEKLYPGYYTRAQFDLAFVVRYKPDEQPSLMPHHDASTFTINIALNRVGVDYEGGGCRFLRYNCSIRAPRKGWTLMHPGRLTHYHEGLPTTRGTRYIAVSFVDP
B4: PMPCA (protein, UniProt Q10713 34-525)
chain: SSGGAYPNIPLSSPLPGVPKPVFATVDGQEKFETKVTTLDNGLRVASQNKFGQFCTVGILINSGSRYEAKYLSGIAHFLEKLAFSSTARFDSKDEILLTLEKHGGICDCQTSRDTTMYAVSADSKGLDTVVALLADVVLQPRLTDEEVEMTRMAVQFELEDLNLRPDPEPLLTEMIHEAAYRENTVGLHRFCPTENVAKINREVLHSYLRNYYTPDRMVLAGVGVEHEHLVDCARKYLLGVQPAWGSAEAVDIDRSVAQYTGGIAKLERDMSNVSLGPTPIPELTHIMVGLESCSFLEEDFIPFAVLNMMMGGGGSFSAGGPGKGMFSRLYLNVLNRHHWMYNATSYHHSYEDTGLLCIHASADPRQVREMVEIITKEFILMGGTVDTVELERAKTQLTSMLMMNLESRPVIFEDVGRQVLATRSRKLPHELCTLIRNVKPEDVKRVASKMLRGKPAVAALGDLTDLPTYEHIQTALSSKDGRLPRTYRLFR
B5: PMPCB (protein, UniProt O75439 44-489)
chain: STQAATQVVLNVPETRVTCLESGLRVASEDSGLSTCTVGLWIDAGSRYENEKNNGTAHFLEHMAFKGTKKRSQLDLELEIENMGAHLNAYTSREQTVYYAKAFSKDLPRAVEILADIIQNSTLGEAEIERERGVILREMQEVETNLQEVVFDYLHATAYQNTALGRTILGPTENIKSISRKDLVDYITTHYKGPRIVLAAAGGVSHDELLDLAKFHFGDSLCTHKGEIPALPPCKFTGSEIRVRDDKMPLAHLAIAVEAVGWAHPDTICLMVANTLIGNWDRSFGGGMNLSSKLAQLTCHGNLCHSFQSFNTSYTDTGLWGLYMVCESSTVADMLHVVQKEWMRLCTSVTESEVARARNLLKTNMLLQLDGSTPICEDIGRQMLCYNRRIPIPELEARIDAVNAETIREVCTKYIYNRSPAIAAVGPIKQLPDFKQIRSNMCWLRD
B6: ADNP (endogenous) (protein, UniProt Q9H2P0 1-1102)
chain: MFQLPVNNLGSLRKARKTVKKILSDIGLEYCKEHIEDFKQFEPNDFYLKNTTWEDVGLWDPSLTKNQDYRTKPFCCSACPFSSKFFSAYKSHFRNVHSEDFENRILLNCPYCTFNADKKTLETHIKIFHAPNASAPSSSLSTFKDKNKNDGLKPKQADSVEQAVYYCKKCTYRDPLYEIVRKHIYREHFQHVAAPYIAKAGEKSLNGAVPLGSNAREESSIHCKRCLFMPKSYEALVQHVIEDHERIGYQVTAMIGHTNVVVPRSKPLMLIAPKPQDKKSMGLPPRIGSLASGNVRSLPSQQMVNRLSIPKPNLNSTGVNMMSSVHLQQNNYGVKSVGQGYSVGQSMRLGLGGNAPVSIPQQSQSVKQLLPSGNGRSYGLGSEQRSQAPARYSLQSANASSLSSGQLKSPSLSQSQASRVLGQSSSKPAAAATGPPPGNTSSTQKWKICTICNELFPENVYSVHFEKEHKAEKVPAVANYIMKIHNFTSKCLYCNRYLPTDTLLNHMLIHGLSCPYCRSTFNDVEKMAAHMRMVHIDEEMGPKTDSTLSFDLTLQQGSHTNIHLLVTTYNLRDAPAESVAYHAQNNPPVPPKPQPKVQEKADIPVKSSPQAAVPYKKDVGKTLCPLCFSILKGPISDALAHHLRERHQVIQTVHPVEKKLTYKCIHCLGVYTSNMTASTITLHLVHCRGVGKTQNGQDKTNAPSRLNQSPSLAPVKRTYEQMEFPLLKKRKLDDDSDSPSFFEEKPEEPVVLALDPKGHEDDSYEARKSFLTKYFNKQPYPTRREIEKLAASLWLWKSDIASHFSNKRKKCVRDCEKYKPGVLLGFNMKELNKVKHEMDFDAEWLFENHDEKDSRVNASKTADKKLNLGKEDDSSSDSFENLEEESNESGSPFDPVFEVEPKISNDNPEEHVLKVIPEDASESEEKLDQKEDGSKYETIHLTEEPTKLMHNASDSEVDQDDVVEWKDGASPSESGPGSQQVSDFEDNTCEMKPGTWSDESSQSEDARSSKPAAKKKATMQGDREQLKWKNSSYGKVEGFWSKDQSQWKNASENDERLSNPQIEWQNSTIDSEDGEQFDNMTDGVAEPMHGSLAGVKLSSQQA

Each molecule was assayed against 2×FLAG/V5-TBR1 (human) (UniProt Q16650) (assay: affinity purification with mass spectrometry; nuclear extract of HEK293 cells stably expressing 2xFLAG/V5-TBR1 on anti-FLAG M2 agarose beads, 3 h at 4°C, buffer C-100 (20 mM HEPES pH 7.6, 20% glycerol, 100 mM KCl, 1.5 mM MgCl2, 0.2 mM EDTA) with benzonase and ethidium bromide; eluted with FLAG-tripeptide; two independent purifications (AP1, AP2); untransfected cells as control).

Molecule | binding
RAD50 (from UniProt Q92878 1-1312) | binds
TP53 (from UniProt P04637 1-393) | binds
STUB1 (from UniProt Q9UNE7 1-303) | binds
GATAD2B (endogenous) (from UniProt Q8WXI9 1-593) | binds
PAXIP1 (from UniProt Q6ZW49 1-1069) | binds
CYFIP2 (from UniProt Q96F07 1-1278) | binds
ANK2 (from UniProt Q01484 1-3957) | binds
BCOR (endogenous) (from UniProt Q6W2J9 1-1755) | binds
ANK3 (from UniProt Q12955 1-4377) | binds
EPB41L2 (from UniProt O43491 1-1005) | binds
ZMYM4 (from UniProt Q5VZL5 1-1548) | binds
MYO9B (from UniProt Q13459 1-2157) | binds
ZFHX4 (from UniProt Q86UP3 1-3567) | binds
nuclear cap-binding protein NCBP1 (from UniProt Q09161 1-790) | binds
CHD7 (from UniProt Q9P2D1 1-2997) | binds

Target: 2×FLAG/V5-TBR1 (human) (UniProt Q16650)
Assay: as above
Remark: another data set of the same source

Molecule | binding
B1 | binds
B2 | binds
B3 | binds
B4 | binds
B5 | binds
B6 | binds
